Experimental data: patent US20200331998A1
These are yes or no findings as the source states them, for the method shown. Some binding calls cover weakened binding; strength is not graded here.

By UniProt entry, the sequences of proteins in these tests, tags left out. Residues count along the entry.
UniProt P15391, residues 20-291: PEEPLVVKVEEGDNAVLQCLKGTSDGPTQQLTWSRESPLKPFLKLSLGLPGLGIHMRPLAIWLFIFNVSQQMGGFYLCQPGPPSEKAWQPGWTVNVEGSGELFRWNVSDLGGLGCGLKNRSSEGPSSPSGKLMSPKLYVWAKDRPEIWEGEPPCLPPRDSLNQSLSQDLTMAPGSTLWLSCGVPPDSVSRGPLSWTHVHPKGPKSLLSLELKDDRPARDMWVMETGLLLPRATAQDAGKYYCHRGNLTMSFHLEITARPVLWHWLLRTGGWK

What was measured:
[1] = molecular target: UCART19 CAR (anti-CD19 chimeric antigen receptor with a 4G7-derived scFv, on UCART19 cells); assay: flow cytometry on primary human T cells (FIG. 6B legend)
[2] = molecular target: UCART19 CAR (anti-CD19 chimeric antigen receptor with a 4G7-derived scFv, on UCART19 cells); assay: flow cytometry on primary human T cells expressing the CAR

binding [1]: binds | binding [2]: binds
Substance: soluble CD19-hFc (from UniProt P15391 20-291) (Fc fusion)
